According to paper PMC6231649:
Results are given in words; binding and its absence hold for the method and conditions named. Binding seen in cells or lysates may run through a third protein. Sequences can lack the tags named with a protein.

Target: T1, SNX5-FLAG S226E, Q9Y5X3
T1 chain: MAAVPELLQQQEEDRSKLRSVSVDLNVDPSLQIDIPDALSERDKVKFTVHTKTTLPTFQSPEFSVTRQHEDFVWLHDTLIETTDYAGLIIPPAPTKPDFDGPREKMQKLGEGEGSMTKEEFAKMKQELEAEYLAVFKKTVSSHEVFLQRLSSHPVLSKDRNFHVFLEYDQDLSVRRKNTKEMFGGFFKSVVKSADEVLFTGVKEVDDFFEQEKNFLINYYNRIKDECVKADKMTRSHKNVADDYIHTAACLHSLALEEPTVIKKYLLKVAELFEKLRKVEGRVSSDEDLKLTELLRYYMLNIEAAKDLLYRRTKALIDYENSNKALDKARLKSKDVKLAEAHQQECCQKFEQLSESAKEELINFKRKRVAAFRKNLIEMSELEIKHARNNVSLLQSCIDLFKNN
Test: co-IP; FLAG pull-down: lysates of 8505C cells expressing SNX5-3xFLAG (48 h, adenovirus) in 0.5% NP-40, 50 mM Tris pH8.0, 150 mM NaCl, 1 mM Na3VO4, 10 mM NaF; anti-FLAG M2 beads 4 h at 4°C; eluted with FLAG-peptide; blots with anti-FLAG, anti-SNX1, anti-SNX2
Conditions: remark: other sources report otherwise

binding: no binding
B1: SNX2 (endogenous in 8505C cells), O60749 1-519 (protein)
chain: MAAEREPPPLGDGKPTDFEDLEDGEDLFTSTVSTLESSPSSPEPASLPAEDISANSNGPKPTEVVLDDDREDLFAEATEEVSLDSPEREPILSSEPSPAVTPVTPTTLIAPRIESKSMSAPVIFDRSREEIEEEANGDIFDIEIGVSDPEKVGDGMNAYMAYRVTTKTSLSMFSKSEFSVKRRFSDFLGLHSKLASKYLHVGYIVPPAPEKSIVGMTKVKVGKEDSSSTEFVEKRRAALERYLQRTVKHPTLLQDPDLRQFLESSELPRAVNTQALSGAGILRMVNKAADAVNKMTIKMNESDAWFEEKQQQFENLDQQLRKLHVSVEALVCHRKELSANTAAFAKSAAMLGNSEDHTALSRALSQLAEVEEKIDQLHQEQAFADFYMFSELLSDYIRLIAAVKGVFDHRMKCWQKWEDAQITLLKKREAEAKMMVANKPDKIQQAKNEIREWEAKVQQGERDFEQISKTIRKEVGRFEKERVKDFKTVIIKYLESLVQTQQQLIKYWEAFLPEAKAIA
